Measured values reported in PMC11003095.
No constants are given. Whether binding was seen depends on the method and setting. Binding seen in cells or lysates may run through a third protein. Some results given as binding are weak or reduced against the parent protein; the word gives no strength.

Chains of the proteins cited; added tags and fusions are not shown. Residues count along the entry.
UniProt P35968, residues 20-1356: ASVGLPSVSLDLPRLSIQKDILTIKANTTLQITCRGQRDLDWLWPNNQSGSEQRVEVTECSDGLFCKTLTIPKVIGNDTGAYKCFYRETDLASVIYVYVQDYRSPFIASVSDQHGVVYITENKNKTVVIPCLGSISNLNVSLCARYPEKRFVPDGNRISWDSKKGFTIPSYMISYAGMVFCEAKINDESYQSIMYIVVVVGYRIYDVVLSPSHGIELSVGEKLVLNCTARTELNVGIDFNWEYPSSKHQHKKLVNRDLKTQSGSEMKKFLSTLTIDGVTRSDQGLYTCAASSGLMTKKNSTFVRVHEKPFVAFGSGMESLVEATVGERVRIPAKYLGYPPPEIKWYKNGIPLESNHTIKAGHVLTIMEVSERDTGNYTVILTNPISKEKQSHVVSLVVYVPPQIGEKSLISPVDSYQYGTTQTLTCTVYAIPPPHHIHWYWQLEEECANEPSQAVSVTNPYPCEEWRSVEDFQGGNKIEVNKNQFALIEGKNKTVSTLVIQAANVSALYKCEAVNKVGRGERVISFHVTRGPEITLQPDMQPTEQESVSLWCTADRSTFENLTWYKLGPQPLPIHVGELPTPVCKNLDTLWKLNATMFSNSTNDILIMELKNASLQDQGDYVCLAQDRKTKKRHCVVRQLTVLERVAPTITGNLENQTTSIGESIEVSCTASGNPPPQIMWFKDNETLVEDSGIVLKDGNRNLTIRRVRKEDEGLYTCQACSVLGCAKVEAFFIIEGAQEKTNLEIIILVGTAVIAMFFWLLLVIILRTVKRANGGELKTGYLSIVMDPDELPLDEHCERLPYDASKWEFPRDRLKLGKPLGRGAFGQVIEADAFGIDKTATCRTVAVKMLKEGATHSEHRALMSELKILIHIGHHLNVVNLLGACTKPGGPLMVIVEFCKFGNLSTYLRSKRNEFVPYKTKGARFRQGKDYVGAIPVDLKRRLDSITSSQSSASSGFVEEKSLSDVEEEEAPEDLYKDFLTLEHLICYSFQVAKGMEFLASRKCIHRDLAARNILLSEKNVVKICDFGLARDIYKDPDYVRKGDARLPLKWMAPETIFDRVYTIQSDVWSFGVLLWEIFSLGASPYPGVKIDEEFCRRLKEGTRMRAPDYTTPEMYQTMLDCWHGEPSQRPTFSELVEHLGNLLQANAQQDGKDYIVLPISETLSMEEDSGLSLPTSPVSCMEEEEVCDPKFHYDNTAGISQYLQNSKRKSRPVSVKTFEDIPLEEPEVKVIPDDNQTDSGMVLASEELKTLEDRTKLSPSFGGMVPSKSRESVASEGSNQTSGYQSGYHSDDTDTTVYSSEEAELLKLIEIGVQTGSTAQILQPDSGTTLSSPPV
UniProt P37288: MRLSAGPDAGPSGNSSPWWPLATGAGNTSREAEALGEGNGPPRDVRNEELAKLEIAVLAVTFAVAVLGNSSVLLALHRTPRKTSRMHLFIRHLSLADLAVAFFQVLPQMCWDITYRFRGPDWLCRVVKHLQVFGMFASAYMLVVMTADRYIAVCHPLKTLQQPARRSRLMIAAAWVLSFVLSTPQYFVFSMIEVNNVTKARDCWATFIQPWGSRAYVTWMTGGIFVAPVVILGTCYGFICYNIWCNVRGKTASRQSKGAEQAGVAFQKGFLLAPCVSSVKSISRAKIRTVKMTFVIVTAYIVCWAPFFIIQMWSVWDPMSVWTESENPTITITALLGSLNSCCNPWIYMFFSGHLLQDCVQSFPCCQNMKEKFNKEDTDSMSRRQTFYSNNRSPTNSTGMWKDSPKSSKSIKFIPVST
UniProt P30559: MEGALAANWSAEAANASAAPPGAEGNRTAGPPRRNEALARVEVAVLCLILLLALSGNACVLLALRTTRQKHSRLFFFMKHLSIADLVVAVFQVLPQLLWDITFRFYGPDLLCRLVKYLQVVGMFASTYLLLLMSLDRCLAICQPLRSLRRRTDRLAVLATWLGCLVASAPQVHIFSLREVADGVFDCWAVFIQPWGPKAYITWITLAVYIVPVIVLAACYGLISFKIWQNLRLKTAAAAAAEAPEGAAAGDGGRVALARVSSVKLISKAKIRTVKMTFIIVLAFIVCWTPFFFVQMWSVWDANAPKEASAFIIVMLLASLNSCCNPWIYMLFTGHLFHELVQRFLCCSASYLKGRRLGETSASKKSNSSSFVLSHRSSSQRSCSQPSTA

Legend:
Experiment in all cases: co-IP; 3 mg ASB-14-extracted placental membranes mixed overnight at 6-8 C with Dynabeads M-280 charged with VEGFR2, MDMX or PICALM antibody; washed in buffer with 1% ASB-14; eluted with SDS-DTT at 95 C; eluates probed by western blot
[1] = target: Vascular endothelial growth factor receptor 2 (human (endogenous in placenta)) (UniProt P35968)
[2] = target: T1, Phosphatidylinositol-binding clathrin assembly protein (human (endogenous in placenta)) (UniProt Q13492)
T1 sequence: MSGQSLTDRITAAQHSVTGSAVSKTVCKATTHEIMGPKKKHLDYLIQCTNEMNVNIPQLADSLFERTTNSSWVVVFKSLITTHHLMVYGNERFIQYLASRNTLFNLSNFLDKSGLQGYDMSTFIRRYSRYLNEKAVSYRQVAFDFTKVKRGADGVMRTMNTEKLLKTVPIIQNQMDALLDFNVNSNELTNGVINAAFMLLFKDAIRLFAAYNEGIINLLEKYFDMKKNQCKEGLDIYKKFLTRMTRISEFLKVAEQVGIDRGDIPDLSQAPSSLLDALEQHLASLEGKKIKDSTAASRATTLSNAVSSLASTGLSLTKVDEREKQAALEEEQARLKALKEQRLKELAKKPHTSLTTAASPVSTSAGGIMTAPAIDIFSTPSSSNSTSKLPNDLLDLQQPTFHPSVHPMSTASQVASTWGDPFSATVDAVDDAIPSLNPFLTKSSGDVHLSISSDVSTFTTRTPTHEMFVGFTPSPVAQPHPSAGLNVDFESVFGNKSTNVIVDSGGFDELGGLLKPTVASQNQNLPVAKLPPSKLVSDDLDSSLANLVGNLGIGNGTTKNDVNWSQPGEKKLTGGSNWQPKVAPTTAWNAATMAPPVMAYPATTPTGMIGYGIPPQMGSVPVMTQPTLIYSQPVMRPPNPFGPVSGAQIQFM

[3] = target: T2, Double minute 4 protein (human (endogenous in placenta)) (UniProt O15151)
T2 sequence: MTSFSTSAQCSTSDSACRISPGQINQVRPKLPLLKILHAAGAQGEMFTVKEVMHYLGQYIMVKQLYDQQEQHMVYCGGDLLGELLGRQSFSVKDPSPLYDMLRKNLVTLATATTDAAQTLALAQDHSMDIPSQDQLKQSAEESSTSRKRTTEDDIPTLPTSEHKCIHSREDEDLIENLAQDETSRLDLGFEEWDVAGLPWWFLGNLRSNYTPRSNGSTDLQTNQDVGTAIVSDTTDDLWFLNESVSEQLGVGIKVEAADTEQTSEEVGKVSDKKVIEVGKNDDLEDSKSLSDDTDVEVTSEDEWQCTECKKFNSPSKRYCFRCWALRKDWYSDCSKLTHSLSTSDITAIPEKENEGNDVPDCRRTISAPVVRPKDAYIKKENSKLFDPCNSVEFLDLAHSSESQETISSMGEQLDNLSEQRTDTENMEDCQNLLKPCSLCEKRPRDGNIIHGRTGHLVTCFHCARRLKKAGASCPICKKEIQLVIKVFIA

Substance	binding [1]	binding [2]	binding [3]
vasopressin V1aR receptor (from UniProt P37288 1-418)	no binding	binds	binds
oxytocin receptor (from UniProt P30559 1-389)	no binding	binds	binds
